Data published in the supplement of paper PMC10849652.
This is one part of the list.

Amino acid sequences for entries named in this document (tags omitted). A change or cut given only in a name is not applied to a line headed by its entry.
UniProt Q8N2W9: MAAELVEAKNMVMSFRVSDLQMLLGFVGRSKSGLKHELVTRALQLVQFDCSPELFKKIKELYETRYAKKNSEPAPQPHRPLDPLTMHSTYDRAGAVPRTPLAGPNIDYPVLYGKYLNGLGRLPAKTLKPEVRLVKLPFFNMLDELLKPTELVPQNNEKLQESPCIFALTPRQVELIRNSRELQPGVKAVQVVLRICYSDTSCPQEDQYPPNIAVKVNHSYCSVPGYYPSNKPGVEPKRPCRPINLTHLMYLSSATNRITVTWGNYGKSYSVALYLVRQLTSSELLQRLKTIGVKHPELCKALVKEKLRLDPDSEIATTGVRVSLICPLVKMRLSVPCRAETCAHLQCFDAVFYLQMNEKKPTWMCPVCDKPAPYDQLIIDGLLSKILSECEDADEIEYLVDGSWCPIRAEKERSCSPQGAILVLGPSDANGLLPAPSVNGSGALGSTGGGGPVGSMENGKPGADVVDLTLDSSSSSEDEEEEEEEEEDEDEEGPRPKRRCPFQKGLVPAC
UniProt O94880: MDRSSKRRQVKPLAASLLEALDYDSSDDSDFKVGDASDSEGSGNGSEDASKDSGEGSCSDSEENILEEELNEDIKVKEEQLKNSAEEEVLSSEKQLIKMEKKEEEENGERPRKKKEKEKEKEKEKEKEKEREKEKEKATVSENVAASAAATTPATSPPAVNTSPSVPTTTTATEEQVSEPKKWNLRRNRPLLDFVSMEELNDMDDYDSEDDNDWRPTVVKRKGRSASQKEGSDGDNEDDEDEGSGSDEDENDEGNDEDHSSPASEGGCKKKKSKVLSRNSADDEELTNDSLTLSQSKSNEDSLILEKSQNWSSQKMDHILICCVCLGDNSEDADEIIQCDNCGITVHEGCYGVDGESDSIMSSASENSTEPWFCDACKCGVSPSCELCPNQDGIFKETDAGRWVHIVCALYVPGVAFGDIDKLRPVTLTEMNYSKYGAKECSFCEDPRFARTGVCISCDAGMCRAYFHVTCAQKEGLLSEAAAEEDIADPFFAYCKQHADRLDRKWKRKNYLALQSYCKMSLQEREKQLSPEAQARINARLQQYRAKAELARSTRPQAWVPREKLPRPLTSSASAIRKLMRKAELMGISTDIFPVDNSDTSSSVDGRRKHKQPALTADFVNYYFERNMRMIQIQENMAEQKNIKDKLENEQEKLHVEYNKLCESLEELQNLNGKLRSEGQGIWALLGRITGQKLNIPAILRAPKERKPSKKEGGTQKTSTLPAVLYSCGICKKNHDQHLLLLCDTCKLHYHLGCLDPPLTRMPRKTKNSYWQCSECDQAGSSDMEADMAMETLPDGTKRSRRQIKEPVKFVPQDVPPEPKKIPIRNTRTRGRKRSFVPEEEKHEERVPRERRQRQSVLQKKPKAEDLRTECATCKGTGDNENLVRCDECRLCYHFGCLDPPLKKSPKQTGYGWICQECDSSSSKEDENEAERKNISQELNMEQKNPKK
UniProt P42336, whole entry, looked up: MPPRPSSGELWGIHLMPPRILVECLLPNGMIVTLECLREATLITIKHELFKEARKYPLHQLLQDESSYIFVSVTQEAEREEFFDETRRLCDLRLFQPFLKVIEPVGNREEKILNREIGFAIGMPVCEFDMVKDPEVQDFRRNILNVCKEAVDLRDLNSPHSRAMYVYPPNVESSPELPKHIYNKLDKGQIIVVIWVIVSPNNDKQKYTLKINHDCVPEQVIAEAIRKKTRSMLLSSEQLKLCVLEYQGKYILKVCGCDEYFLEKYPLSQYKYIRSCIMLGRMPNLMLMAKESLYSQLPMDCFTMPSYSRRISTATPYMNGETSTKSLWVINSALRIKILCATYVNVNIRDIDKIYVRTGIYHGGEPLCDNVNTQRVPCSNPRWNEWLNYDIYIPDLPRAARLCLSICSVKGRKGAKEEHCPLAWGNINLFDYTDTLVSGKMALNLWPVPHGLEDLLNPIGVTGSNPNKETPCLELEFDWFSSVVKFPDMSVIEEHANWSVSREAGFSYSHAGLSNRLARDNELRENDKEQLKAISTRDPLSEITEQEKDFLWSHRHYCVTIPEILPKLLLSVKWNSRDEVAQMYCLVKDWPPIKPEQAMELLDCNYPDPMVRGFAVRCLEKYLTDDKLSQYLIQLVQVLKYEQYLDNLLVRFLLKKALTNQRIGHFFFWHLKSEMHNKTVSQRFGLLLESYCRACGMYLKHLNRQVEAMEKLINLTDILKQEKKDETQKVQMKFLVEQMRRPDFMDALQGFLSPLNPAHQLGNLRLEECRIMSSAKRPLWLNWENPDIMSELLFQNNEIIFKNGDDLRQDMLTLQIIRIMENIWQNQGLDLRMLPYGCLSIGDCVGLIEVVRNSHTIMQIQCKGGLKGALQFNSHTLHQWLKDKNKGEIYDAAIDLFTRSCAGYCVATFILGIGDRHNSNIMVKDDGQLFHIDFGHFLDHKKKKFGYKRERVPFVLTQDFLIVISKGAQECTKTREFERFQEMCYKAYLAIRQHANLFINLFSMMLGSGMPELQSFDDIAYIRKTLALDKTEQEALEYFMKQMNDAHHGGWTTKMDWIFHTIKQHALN
UniProt Q14442: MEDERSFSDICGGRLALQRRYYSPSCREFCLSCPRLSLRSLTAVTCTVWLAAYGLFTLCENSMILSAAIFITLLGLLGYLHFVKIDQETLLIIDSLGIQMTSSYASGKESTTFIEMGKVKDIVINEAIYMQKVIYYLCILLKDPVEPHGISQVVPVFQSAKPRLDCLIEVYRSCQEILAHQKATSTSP
UniProt Q9Y2B2: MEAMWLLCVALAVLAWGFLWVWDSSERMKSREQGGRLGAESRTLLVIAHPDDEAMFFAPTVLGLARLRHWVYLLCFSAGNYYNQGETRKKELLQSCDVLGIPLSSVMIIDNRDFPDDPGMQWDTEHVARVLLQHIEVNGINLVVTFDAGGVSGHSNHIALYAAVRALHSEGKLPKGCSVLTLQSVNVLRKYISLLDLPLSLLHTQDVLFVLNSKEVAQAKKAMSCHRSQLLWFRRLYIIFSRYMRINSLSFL
PIGBOS1, A0A0B4J2F0, UniProt A0A0B4J2F0, whole entry, looked up: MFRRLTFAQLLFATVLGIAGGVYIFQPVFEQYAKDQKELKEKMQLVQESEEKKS
UniProt Q7Z412: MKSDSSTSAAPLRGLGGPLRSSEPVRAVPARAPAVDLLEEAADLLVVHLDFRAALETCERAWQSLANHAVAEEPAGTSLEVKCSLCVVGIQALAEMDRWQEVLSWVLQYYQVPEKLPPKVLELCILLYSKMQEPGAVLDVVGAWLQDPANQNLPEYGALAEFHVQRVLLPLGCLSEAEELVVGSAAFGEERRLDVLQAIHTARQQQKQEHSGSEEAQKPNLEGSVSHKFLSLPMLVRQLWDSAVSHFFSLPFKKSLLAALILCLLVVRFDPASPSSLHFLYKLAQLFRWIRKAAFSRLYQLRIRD
UniProt Q9BZM1: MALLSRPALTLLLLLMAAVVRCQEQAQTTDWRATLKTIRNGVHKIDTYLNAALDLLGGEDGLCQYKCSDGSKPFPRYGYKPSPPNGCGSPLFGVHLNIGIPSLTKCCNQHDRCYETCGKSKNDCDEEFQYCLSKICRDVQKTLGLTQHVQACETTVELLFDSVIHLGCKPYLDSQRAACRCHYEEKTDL
UniProt Q86UU1: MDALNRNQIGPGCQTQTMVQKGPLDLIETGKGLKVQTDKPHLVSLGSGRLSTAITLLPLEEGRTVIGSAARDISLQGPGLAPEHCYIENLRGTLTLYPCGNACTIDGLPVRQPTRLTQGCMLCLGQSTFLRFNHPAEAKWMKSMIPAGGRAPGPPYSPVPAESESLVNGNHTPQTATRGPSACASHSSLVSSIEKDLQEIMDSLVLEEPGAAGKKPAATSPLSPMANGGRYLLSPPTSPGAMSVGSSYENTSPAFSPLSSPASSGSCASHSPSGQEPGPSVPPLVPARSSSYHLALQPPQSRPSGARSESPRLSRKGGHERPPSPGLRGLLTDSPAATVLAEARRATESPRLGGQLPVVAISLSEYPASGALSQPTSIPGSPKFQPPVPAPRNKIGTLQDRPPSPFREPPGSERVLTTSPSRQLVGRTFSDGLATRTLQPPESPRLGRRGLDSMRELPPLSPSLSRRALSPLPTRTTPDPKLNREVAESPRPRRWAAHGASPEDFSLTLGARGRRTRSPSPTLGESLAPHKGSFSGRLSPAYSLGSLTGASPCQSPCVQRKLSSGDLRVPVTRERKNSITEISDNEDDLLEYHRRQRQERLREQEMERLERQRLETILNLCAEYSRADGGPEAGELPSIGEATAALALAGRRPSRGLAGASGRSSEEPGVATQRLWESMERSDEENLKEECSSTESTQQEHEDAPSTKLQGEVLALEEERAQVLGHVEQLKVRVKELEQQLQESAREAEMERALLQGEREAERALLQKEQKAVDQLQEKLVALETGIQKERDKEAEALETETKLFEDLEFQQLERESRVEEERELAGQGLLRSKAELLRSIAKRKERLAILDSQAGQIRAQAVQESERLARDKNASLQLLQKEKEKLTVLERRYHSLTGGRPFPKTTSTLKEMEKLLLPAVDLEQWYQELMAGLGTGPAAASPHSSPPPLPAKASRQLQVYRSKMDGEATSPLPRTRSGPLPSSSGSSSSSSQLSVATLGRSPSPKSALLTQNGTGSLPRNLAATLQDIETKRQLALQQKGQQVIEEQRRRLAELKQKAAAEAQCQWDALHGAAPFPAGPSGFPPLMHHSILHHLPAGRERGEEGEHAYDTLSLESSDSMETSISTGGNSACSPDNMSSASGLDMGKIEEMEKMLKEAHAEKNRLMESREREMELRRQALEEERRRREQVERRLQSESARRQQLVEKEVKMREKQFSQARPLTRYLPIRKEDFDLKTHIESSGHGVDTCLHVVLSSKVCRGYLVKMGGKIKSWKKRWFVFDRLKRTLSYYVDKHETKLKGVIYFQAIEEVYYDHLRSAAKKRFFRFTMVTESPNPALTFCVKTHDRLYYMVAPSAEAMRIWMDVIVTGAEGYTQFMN
UniProt O75925, whole entry, looked up: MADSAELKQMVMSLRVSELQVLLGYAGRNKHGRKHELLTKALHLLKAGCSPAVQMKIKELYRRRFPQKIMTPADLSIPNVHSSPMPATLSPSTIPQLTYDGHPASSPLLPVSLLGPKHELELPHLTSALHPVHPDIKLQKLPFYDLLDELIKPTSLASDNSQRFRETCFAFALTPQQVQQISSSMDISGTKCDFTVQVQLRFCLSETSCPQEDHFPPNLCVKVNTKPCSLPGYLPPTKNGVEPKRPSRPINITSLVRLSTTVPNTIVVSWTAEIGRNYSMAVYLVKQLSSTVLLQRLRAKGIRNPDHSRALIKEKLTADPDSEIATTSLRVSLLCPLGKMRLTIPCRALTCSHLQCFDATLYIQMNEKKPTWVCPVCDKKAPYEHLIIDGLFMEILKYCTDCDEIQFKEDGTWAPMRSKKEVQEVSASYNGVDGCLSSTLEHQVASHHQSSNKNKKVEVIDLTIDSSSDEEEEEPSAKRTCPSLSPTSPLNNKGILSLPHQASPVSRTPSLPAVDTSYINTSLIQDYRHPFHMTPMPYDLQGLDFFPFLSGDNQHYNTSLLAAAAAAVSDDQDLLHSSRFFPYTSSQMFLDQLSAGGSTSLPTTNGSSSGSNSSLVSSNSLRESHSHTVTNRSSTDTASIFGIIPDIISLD
UniProt Q9NRD5, whole entry, looked up: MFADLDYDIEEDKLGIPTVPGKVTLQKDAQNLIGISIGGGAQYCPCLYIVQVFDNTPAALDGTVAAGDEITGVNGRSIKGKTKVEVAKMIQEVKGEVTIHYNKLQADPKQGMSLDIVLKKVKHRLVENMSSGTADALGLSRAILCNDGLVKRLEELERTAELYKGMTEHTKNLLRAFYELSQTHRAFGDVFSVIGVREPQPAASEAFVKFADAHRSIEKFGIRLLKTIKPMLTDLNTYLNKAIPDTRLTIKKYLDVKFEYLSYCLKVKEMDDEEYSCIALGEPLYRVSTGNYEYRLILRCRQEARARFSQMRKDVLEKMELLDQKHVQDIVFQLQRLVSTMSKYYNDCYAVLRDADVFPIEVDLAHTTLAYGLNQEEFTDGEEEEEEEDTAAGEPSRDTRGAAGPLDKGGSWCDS
UniProt Q8TCG2: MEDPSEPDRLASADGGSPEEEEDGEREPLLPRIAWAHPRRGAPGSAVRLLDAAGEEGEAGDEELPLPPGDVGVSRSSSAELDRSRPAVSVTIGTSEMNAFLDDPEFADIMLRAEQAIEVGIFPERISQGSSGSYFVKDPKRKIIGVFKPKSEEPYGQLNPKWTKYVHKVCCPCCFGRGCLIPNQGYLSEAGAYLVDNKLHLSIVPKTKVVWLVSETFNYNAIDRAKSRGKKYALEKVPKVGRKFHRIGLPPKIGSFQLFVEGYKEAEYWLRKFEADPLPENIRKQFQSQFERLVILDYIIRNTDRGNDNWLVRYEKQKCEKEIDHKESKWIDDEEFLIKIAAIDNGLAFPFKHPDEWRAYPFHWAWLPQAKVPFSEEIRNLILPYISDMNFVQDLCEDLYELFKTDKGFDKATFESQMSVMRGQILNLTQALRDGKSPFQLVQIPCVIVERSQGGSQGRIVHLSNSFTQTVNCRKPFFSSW

Compound: Cc1ccc(C(=O)N(CCCN)[C@@H](c2nc3cc(Cl)ccc3c(=O)n2Cc2ccccc2)C(C)C)cc1 [ispinesib]
Assay: log2 fold change, soluble protein after heating vs DMSO (PISA); higher = thermal stabilisation; K562 cells, 10 uM, 30 min; active = over 0.2 and 3.5 SD of the protein, either way, in both replicates (recomputed)
Outline: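 Quantification of soluble protein used TMTpro 16plex LC-MS/MS, with channel sums equalised. Samples were the supernatant after 21,000xg for 90 min of pooled aliquots from K562 cells (2×10^6 cells/mL) treated with 10 μM compound for 30 min, heated for 3 min over 48°C-58°C, and extracted in PBS with 0.5% NP-40 at 4°C. Values, from duplicates, describe thermal stability against control samples on a log2 fold-change scale.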

| Target | log2 fold change |
| --- | --- |
| PIAS4 (UniProt Q8N2W9) | inactive: -0.278 |
| PLCXD1 (UniProt Q9NUJ7) | inactive: -0.145 |
| PHRF1 (UniProt Q9P1Y6) | inactive: -0.296 |
| PHF14 (UniProt O94880) | inactive: -0.01 |
| PIK3CA (UniProt P42336) | inactive: -0.085 |
| PIGH (UniProt Q14442) | inactive: 0.033 |
| PGD (UniProt K7EM49) | inactive: -0.075 |
| PKP4 (UniProt Q99569) | inactive: -0.044 |
| PIGL (UniProt Q9Y2B2) | inactive: 0.086 |
| PIGBOS1, A0A0B4J2F0 | inactive: 0.014 |
| PHOSPHO2 (UniProt Q8TCD6) | inactive: -0.14 |
| PEX26 (UniProt Q7Z412) | inactive: -0.115 |
| PEX5 isoform 4 (UniProt P50542) | inactive: -0.078 |
| PLA2G12A (UniProt Q9BZM1) | inactive: -0.038 |
| PKMYT1 (UniProt Q99640) | inactive: -0.603 |
| PLEK (UniProt P08567) | inactive: -0.089 |
| PHLDB1 isoform 2 (UniProt Q86UU1) | inactive: -0.053 |
| PIAS1 isoform 2 (UniProt O75925) | inactive: -0.121 |
| PICK1 (UniProt Q9NRD5) | inactive: 0.001 |
| PI4K2B (UniProt Q8TCG2) | active: -0.355 |

In another format: results already given.
Target,log2 fold change
PIK3CA (UniProt P42336),inactive: -0.085
PIGH (UniProt Q14442),inactive: 0.033
PLEK (UniProt P08567),inactive: -0.089
PICK1 (UniProt Q9NRD5),inactive: 0.001
